Data published in article PMC6768323, “Adverse Maternal, Fetal, and Postnatal Effects of Hexafluoropropylene Oxide Dimer Acid (GenX) from Oral Gestational Exposure in Sprague-Dawley Rats” (Environmental Health Perspectives, 2019).

Experiment: Margin of internal exposure, maternal rat serum : human worker plasma

SMILES: O=C(O)C(F)(OC(F)(F)C(F)(F)C(F)(F)F)C(F)(F)F (centres unmarked) [HFPO-DA, Hexafluoropropylene oxide dimer acid]
- mean dam serum concentration versus highest worker plasma concentration (1 mg/kg per day): 4 fold
- mean dam serum concentration versus highest worker plasma concentration (125 mg/kg per day): 272 fold
